# Primary screen of a compound library

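Whole-parasite assay of Trypanosoma brucei over 72 hours; the read-out is not stated. Tested at 30 µM. The record gives no direction; compounds that gave an IC50 in retests scored well above the rest, so higher reads as stronger inhibition. Values scatter widely below zero; nearly all retest evidence comes from the higher of the two concentrations used. Size under these conditions: about 64,000 compounds, about 940 of them at 50% or above in at least one test.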

Results are given as percent effect. The controls that fix the scale are not given in the record; negative values are as filed. The compounds are a random part of those screened.

Compound	effect
CC(C)n1c(=O)c2ccccc2n(CCN2CCCCC2)c1=O	19.91
CNC(=O)c1ccc2c(c1O)OC(C)(C)C2	-31.57
O=C(NCc1nncn1C1CCCCC1)C1CNCCO1 (stereo not drawn)	-59.37
[H][C@@]12C[C@H](NC(=O)COC)CN1[C@H](CCC(=O)NC1CC1)CNC2=O	-16.55
Cc1c(C2CCCN(C(=O)Cc3ccccn3)C2)n2c(nc1=O)CCC2.Cl (stereo not drawn)	-33.73
c1cc(C2CCN(Cc3nc(C4CC4)no3)CC2)[nH]n1	-23.39
Fc1cnc(N2CCCC3(CN(Cc4ccccc4)CCO3)C2)nc1.O=C(O)C(F)(F)F (stereo not drawn)	-28.32
Cc1oc(C)c(C(=O)N2CCCN(c3nccs3)CC2)c1C	-11.46
COc1ccccc1CCC(=O)N1CCCC(OCc2cccnc2)C1 (stereo not drawn)	-88.76
CCCN1CCC(c2nc3ccc(-c4ccncc4)cn3n2)CC1.O=C(O)C(F)(F)F.O=C(O)C(F)(F)F	-8.049
CC(C)C(=O)N1CCCC(c2cc(C(F)F)n3ncnc3n2)C1.Cl (stereo not drawn)	-37.1
O=C(Cn1cnnn1)Nc1ccc(F)cc1OCC1CC1	-32.85
CCN(C(=O)CCCOC)C(c1ccc(Cl)cc1)c1ccccn1 (stereo not drawn)	-36.29
O=C(O)C(F)(F)F.[H][C@@]12CCN(c3cccc(F)c3)C[C@@]1([H])O[C@@H](C(=O)N1CCCC1)C2	9.397
CC(C)NCc1cccnc1N1CCN(c2ccccn2)CC1	-14.95
CCCc1nnc(N2CCN(c3ccccc3F)CC2)o1	-28.87
Cc1cc(C)n(CC2CCCCN2C(=O)c2ccsc2)n1 (stereo not drawn)	-0.2099
CN1CC(Oc2ccc(Cl)cc2)=NC(SCC(=O)c2ccccc2)=N1	-34.58
Cc1cccc(CNc2nnc(C(C)C)o2)c1	-10.34
[H][C@]12CCN(Cc3ccco3)[C@@]1([H])CC[C@H](COCc1cccc(C)n1)O2	-33.29
Fc1ccc(-c2cnc(CN3CCOC(Cn4cccn4)C3)o2)cc1 (stereo not drawn)	7.474
CN(Cc1ccsc1)C(=O)CN1CCCCC1Cn1cccn1 (stereo not drawn)	22.73
O=C(NCCNc1ncccn1)C1CC(=O)N(CC(F)(F)F)C1 (stereo not drawn)	-22.21
C[C@H]1CN(C(=O)c2cscn2)C[C@@]12CCN(c1ccsc1)C2=O	-131.5
Cc1ccc(-n2ccnc2)c(C(=O)NCCOCC2CCCO2)c1 (stereo not drawn)	3.615
O=C(Cc1ccc2c(c1)CCC2)NC1CCN(Cc2ccccc2)CC1	-50.45
COc1cccc(-n2c(C)cc(C(=O)O)c2C)c1	-50.82
O=C(c1cnc(-c2noc3cc(N4CCCC4)ccc23)s1)N1CCCC1	-23.94
CCC(O)CN1CCN(C(=O)c2cnn(-c3ccccc3F)c2)CC1 (stereo not drawn)	22.96
COCC(=O)N1CC(C(=O)NCC2CC2)C2(CCOCC2)C1 (stereo not drawn)	-92.51
O=c1[nH]nc2nc(N3CCCC3)ccn12	-10.41
O=C(c1ccc2c(c1)OCCCO2)N1CCCC(n2ccnc2)C1 (stereo not drawn)	-11.18
COCC1CN(C(=O)Cc2ccccn2)Cc2cn(CC3CC3)nc21 (stereo not drawn)	19.34
Cc1cc(NC2CC3(CCN(Cc4ncccc4F)C3)C2)ncn1 (stereo not drawn)	-6.598
Cc1nc(CNC2CC(=O)N(CCc3cccc(Cl)c3)C2)c[nH]1 (stereo not drawn)	-20.3
CC(=O)NCc1noc2c1CN(Cc1cnn(C)c1)CC2	-41.16
CC(C)c1nnc2ccc(N3CCC(C(=O)NC4CC4)CC3)nn12	-36.93
Cc1nc(C2(NCC(=O)NCc3cccs3)CCCCC2)no1	-11.54
COC(=O)CC1CCCCN1CC(=O)Nc1cc(F)ccc1F (stereo not drawn)	-10.83
CN1CCCC2(CCN(c3cccc(C(F)(F)F)n3)C2)C1=O (stereo not drawn)	-33.86
CS(=O)(=O)N1CCN(C(=O)c2cccc(Cl)c2)CC2(CNC(=O)C2)C1 (stereo not drawn)	-10.66
Cc1nn(C)c2c(=O)n(Cc3ccc(Cl)cc3)nnc12	-16.48
C1CCC(c2nnc3sc(C4CCCO4)nn23)C1 (stereo not drawn)	-26.71
Cn1nnc(NCc2ccc(OCc3ccc(Cl)cc3)cc2)n1	20.39
COc1cc(OC)c(CNC(=O)NCC(=O)N2CCCC2)c(OC)c1	4.77
Cc1nc(COCC2CN(C(N)=O)Cc3nccn3C2)cs1.O=C(O)C(F)(F)F (stereo not drawn)	-49.09

Repeated from the top, 6 entries:

Compound,effect
CC(C)n1c(=O)c2ccccc2n(CCN2CCCCC2)c1=O,19.91
CNC(=O)c1ccc2c(c1O)OC(C)(C)C2,-31.57
O=C(NCc1nncn1C1CCCCC1)C1CNCCO1 (stereo not drawn),-59.37
[H][C@@]12C[C@H](NC(=O)COC)CN1[C@H](CCC(=O)NC1CC1)CNC2=O,-16.55
Cc1c(C2CCCN(C(=O)Cc3ccccn3)C2)n2c(nc1=O)CCC2.Cl (stereo not drawn),-33.73
c1cc(C2CCN(Cc3nc(C4CC4)no3)CC2)[nH]n1,-23.39

Data taken from ChEMBL document CHEMBL3988442, “University of Dundee, Small-Polar-MMV Screening Library” (2021).